From PubChem BioAssay AID624296 (National Center for Advancing Translational Sciences (NCATS), 2012) come the findings set out here.

The list shows a part of the results, in another mix than the full data. Records with an inconclusive call do not appear. Calls of active or inactive are those of the source. Calls come from the whole dose curve; as a rule, active = well fitted activation curve with a large enough effect; inconclusive = small, poorly fitted or top-dose-only effect; inactive = no such curve, though single readings can be large or run the other way.
Potency is the fitted concentration of half-maximal effect.

A short description of this test: A quantitative high throughput screen for small molecules that induce DNA re-replication in MCF 10a normal breast cells. Note: nearly all actives have a fitted effect of over 50% in size. Particulars: MCF 10A DNA re-replication, Hoechst nuclear intensity, 48 h. The source says: H Molecular Libraries Probe Production Network [MLPCN]
NIH Chemical Genomics Center [NCGC]
Assay Provider: Melvin DePamphilis, NICHD, NIH
Eukaryotic cells normally restrict genome duplication to once per cell division. When this process is aberrant, DNA re-replication occurs when cells reinitiate DNA replication before the first round of replication is complete. DNA re-replication induces the DNA damage response, arrests cell proliferation, and triggers apoptosis. The cell cycle components cyclin A, Cdt-1, Cdc6 and geminin are critical regulators of this process and their misregulation results in DNA re-replication in normal and cancer cells. To identify compounds that induce re-replication in normal cells, an image-based assay was used to measure DNA content of nuclei, as detected by the fluorescent DNA binding dye, Hoechst. Cell nuclei were imaged by a fluorescence scanning plate imager and compounds that induce DNA re-replication were identified by the increase of nuclei with elevated fluorescence intensity
For screening, 250 cells in 5 uL/well were dispensed into black clear 1536-well plates (Aurora) using a solenoid-based dispenser. Following transfer of 23 nL compound or DMSO vehicle by a pin tool, the plates were incubated 48 hr at 37 C and 5% CO2. […]
With `COc1c(O)cc2c(c1OC)-c1ccc(OC)c(=O)cc1C(NC(C)=O)CC2` (stereo unspecified), the Potency was active: 0.259 µM.
